Data reported in patent US20250075147A1, “FRAGRANCE AND FLAVOR COMPOSITIONS COMPRISING NEW FLAVOR AND FRAGRANCE INGREDIENTS” (priority 2023, published 2025).
Where a name gives a salt, the structure may show the parent alone. Read-outs that look alike come from different tables or passages of the source.

Tests used:
odor evaluation panel = assay: Odor evaluation panel rating of odorants by Rate-All-That-Apply (RATA) method with 55-word odor lexicon, plus intensity and pleasantness; parameters: species or system human; conditions: for Fruity: mean panelist score for odor label fruity (RATA)
[1] = Evaluation by trained and/or certified flavor or fragrance chemists or master perfumers; categorization by commercial prospect; conditions: for Rating (category of commercial prospect): evaluation by trained flavor or fragrance chemists or master perfumers
[2] = mean panelist score for odor label floral (RATA)
[3] = mean panelist score for odor label spicy (RATA)
[4] = mean panelist score for odor label sweet (RATA)
[5] = mean panelist score for odor pleasantness
[6] = category of commercial prospect, (A) highest > (B) > (C) > (D) lowest, (E) requires further study

| Structure (SMILES) | Floral (odor evaluation panel; [2]) | Fruity (odor evaluation panel) | Spicy (odor evaluation panel; [3]) | Sweet (odor evaluation panel; [4]) | Pleasantness (odor evaluation panel; [5]) | Rating (category of commercial prospect) [1] | Rating [1, 6] | Floral (odor evaluation panel) | Pleasantness (odor evaluation panel) | Spicy (odor evaluation panel) | Sweet (odor evaluation panel) | Rating [1] |
| --- | --- | --- | --- | --- | --- | --- | --- | --- | --- | --- | --- | --- |
| CCCCc1cc2ccccc2o1 [Compound 758, 2-butyl-1-benzofuran] | 0.844 | 0.781 | 0.094 | 1.156 | 5.875 | (A) |  |  |  |  |  |  |
| CCNCc1ccncc1 [Compound 461, N-(pyridin-4-ylmethyl)ethanamine] | 0 | 0 | 0.156 | 0.094 | 3.594 |  | (D) |  |  |  |  |  |
| C=Cc1ccncc1 [Compound 489, 4-ethenylpyridine] | 0.677 | 0.097 | 0.226 | 0.903 | 4.461 |  | (D) |  |  |  |  |  |
| O=C1CCCC(=O)C1 [Compound 594, cyclohexane-1,3-dione] | 0 | 0 | 0 | 0.111 |  | (D) |  |  |  |  |  |  |
| CC(C)(C)C(=O)C(C)(C)C [Compound 315, 2,2,4,4-tetramethylpentan-3-one] |  |  |  |  |  |  |  | 0 | 6.306 | 0.029 | 0.514 | (D) |
| Cc1cc2ccccc2n1C [Compound 829, 1,2-dimethylindole] | 0 | 0 | 0.032 | 0.032 | 2.903 | (C) |  |  |  |  |  |  |
| Cc1cccc(C)c1C#N [Compound 451, 2,6-dimethylbenzonitrile] | 0.222 | 0.028 | 0.389 | 0.667 |  |  | (C) |  |  |  |  |  |
| NC1CCCCCCC1 [Compound 79, cyclooctanamine] | 0 | 0.061 | 0.303 | 0.273 | 2.948 |  | (D) |  |  |  |  |  |
| O=C(O)C#Cc1ccccc1 [Compound 882, 3-phenylprop-2-ynoic acid] | 0.229 | 0.914 | 0.029 | 0.8 | 5.109 | (C) |  |  |  |  |  |  |
| C#CCOC1CCCCO1 (stereo not shown) [Compound 76, 2-prop-2-ynoxyoxane] | 0.156 | 0.75 | 0.375 | 0.844 | 4.531 |  | (C) |  |  |  |  |  |
| CN1C(=O)c2ccccc2C1=O [Compound 481, 2-methylisoindole-1,3-dione] | 0.062 | 0 | 0.062 | 0.125 | 4.684 |  | (D) |  |  |  |  |  |
| Cc1ccccc1CO [Compound 724, (2-methylphenyl)methanol] | 0.714 | 0.629 | 0 | 1.429 | 4.546 | (C) |  |  |  |  |  |  |
| N#CCCNC1CCCCC1 [Compound 954, 3-(cyclohexylamino)propanenitrile] | 0.056 | 0 | 0 | 0.083 |  | (D) |  |  |  |  |  |  |
| CCOC(=O)c1csc(C)n1 [Compound 607, ethyl 2-methyl-1,3-thiazole-4-carboxylate] | 0.086 | 0 | 0.343 | 0.143 | 4.689 | (D) |  |  |  |  |  |  |
| CC1=Nc2ccccc2C1(C)C [Compound 400, 2,3,3-trimethylindole] | 0.417 | 0.139 | 0.083 | 0.528 |  |  | (D) |  |  |  |  |  |
| Cc1ncsc1CCOC=O [Compound 7, 2-(4-methyl-1,3-thiazol-5-yl)ethyl formate] | 0 | 0 | 0.281 | 0.094 | 4.772 |  | (B) |  |  |  |  |  |
| COC(=O)c1cccnc1OC [Compound 776, methyl 2-methoxypyridine-3-carboxylate] | 0.25 | 0.094 | 0.094 | 0.938 | 5.966 | (B) |  |  |  |  |  |  |
| COC1(OC)CCCCC1 [Compound 591, 1,1-dimethoxycyclohexane] | 0.4 | 0.833 | 0 | 1.333 | 6.12 | (D) |  |  |  |  |  |  |
